Data from the supplement of paper PMC6411743.
± gives the standard deviation of the averaged measurements. The list shows a part of the results.

Sequences of proteins named here, by UniProt entry; tags and fusion partners are left off. A change or cut given only in a name is not applied to a line headed by its entry.
UniProt P08174: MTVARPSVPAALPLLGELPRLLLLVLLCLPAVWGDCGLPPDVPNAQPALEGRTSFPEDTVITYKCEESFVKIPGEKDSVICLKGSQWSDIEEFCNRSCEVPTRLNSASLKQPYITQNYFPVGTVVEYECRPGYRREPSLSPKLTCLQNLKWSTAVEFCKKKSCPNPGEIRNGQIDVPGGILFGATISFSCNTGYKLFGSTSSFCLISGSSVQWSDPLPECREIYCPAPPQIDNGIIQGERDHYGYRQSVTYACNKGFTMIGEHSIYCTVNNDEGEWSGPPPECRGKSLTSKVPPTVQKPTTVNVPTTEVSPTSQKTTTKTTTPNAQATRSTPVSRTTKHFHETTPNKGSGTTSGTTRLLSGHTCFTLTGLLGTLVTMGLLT
UniProt Q13557, whole entry: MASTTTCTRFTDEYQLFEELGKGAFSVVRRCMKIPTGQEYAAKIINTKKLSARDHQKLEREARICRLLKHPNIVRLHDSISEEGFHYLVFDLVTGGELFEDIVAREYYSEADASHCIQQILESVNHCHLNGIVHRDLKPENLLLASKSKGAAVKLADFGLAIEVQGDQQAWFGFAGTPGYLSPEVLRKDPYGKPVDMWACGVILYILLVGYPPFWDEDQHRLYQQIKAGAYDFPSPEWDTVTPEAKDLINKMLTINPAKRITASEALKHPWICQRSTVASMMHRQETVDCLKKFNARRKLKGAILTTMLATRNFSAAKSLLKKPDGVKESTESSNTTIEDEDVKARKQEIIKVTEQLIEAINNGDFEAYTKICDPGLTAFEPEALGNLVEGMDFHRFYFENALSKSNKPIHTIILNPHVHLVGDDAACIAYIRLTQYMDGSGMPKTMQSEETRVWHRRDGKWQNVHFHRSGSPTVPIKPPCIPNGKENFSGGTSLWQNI
UniProt Q86WP2: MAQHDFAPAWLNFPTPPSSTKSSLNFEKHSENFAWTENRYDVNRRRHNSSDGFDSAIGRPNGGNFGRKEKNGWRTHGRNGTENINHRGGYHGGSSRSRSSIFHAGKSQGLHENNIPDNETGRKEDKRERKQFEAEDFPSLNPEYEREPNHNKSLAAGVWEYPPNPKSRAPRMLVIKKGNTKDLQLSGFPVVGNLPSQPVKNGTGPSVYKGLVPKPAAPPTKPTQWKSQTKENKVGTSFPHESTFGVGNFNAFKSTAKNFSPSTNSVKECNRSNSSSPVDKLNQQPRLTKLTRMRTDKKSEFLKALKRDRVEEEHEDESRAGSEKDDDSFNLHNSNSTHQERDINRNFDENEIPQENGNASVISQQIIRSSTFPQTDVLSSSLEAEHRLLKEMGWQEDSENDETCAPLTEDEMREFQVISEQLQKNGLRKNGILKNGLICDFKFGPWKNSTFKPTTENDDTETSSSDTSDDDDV
UniProt P63165, whole entry: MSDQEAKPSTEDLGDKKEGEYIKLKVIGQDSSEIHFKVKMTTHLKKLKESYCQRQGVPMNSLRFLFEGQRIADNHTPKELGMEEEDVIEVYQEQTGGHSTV
UniProt Q7L3B6: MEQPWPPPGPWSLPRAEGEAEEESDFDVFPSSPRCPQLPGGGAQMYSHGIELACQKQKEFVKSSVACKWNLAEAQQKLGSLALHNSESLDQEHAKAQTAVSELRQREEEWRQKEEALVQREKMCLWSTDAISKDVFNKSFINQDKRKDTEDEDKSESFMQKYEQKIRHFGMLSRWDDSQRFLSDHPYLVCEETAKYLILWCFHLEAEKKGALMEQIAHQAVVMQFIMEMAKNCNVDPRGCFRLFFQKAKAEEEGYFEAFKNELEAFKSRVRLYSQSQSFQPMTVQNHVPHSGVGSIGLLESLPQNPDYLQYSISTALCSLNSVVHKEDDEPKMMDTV
UniProt P39210: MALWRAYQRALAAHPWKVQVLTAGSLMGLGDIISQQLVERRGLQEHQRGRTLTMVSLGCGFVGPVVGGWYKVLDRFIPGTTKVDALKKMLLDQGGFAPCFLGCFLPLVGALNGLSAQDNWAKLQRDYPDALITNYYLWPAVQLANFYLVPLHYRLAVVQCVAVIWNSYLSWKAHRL
UniProt Q9UNT1: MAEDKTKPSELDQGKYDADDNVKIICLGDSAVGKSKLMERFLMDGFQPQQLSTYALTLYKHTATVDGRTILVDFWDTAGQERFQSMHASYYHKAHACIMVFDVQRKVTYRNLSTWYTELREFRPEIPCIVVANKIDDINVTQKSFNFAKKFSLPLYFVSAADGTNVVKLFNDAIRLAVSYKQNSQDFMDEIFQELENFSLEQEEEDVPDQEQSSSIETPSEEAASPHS
UniProt Q9UBK7: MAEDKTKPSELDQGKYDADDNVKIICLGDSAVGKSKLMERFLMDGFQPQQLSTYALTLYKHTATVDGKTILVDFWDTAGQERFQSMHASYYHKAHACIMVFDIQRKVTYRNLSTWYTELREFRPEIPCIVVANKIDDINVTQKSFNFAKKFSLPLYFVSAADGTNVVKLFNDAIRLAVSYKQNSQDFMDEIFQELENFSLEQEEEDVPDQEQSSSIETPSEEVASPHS
UniProt Q9NZJ5: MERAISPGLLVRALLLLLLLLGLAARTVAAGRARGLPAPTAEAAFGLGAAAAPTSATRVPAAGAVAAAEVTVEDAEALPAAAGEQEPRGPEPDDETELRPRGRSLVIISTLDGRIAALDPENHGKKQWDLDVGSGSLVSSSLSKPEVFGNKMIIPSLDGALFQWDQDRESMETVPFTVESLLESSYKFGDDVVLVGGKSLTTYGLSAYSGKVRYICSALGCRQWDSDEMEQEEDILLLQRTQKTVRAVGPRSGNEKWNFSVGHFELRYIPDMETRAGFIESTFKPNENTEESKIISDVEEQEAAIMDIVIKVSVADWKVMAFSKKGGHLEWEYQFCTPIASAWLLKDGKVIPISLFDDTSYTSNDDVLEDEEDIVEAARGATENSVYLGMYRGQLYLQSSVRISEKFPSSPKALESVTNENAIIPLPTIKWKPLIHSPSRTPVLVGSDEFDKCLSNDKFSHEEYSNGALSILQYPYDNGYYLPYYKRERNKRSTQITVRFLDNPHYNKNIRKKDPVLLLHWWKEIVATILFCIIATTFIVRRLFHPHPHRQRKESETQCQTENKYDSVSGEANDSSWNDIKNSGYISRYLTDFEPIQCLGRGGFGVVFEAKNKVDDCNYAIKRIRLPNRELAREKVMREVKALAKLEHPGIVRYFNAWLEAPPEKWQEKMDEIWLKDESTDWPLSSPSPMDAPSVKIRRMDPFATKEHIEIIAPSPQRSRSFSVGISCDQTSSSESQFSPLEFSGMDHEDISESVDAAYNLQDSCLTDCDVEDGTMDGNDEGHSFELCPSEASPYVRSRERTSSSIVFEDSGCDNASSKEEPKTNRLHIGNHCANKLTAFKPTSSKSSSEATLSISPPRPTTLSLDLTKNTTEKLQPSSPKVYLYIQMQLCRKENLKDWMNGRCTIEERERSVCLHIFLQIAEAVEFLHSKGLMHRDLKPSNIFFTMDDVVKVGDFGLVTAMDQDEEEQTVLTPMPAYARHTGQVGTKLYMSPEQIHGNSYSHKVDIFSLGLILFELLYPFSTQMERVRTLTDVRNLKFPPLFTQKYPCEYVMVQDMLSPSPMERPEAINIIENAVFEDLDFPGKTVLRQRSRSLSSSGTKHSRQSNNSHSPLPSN
UniProt P78317: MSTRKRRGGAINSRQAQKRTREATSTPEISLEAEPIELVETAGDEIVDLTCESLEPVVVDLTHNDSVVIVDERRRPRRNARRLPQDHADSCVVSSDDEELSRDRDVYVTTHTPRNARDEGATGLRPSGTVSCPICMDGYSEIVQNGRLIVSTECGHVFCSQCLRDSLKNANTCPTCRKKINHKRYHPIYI
UniProt Q9UKS7: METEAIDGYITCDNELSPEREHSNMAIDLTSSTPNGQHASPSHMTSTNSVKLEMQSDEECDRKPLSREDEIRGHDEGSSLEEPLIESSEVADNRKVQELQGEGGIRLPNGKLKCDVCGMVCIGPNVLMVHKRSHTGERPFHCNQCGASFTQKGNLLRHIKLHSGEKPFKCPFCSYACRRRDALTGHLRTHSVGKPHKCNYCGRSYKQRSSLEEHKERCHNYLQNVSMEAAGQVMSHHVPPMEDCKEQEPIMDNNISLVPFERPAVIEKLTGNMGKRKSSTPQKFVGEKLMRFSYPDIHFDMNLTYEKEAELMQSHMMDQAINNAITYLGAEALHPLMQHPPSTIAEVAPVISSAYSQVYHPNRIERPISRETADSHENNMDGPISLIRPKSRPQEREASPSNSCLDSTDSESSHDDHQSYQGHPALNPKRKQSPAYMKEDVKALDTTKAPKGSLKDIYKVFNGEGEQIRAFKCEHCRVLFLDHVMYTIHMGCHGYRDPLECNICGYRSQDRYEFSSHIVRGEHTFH
UniProt Q99439: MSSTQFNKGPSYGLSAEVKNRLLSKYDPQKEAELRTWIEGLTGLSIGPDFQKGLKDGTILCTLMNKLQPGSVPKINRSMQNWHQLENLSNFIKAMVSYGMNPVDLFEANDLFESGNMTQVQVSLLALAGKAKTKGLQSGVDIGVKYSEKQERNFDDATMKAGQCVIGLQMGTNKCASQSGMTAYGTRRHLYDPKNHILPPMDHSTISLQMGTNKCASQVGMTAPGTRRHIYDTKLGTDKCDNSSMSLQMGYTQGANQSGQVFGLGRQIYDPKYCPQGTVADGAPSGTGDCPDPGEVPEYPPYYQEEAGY
UniProt P15954, whole entry: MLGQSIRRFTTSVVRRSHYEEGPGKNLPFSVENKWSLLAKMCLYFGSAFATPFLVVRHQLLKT
UniProt P54277: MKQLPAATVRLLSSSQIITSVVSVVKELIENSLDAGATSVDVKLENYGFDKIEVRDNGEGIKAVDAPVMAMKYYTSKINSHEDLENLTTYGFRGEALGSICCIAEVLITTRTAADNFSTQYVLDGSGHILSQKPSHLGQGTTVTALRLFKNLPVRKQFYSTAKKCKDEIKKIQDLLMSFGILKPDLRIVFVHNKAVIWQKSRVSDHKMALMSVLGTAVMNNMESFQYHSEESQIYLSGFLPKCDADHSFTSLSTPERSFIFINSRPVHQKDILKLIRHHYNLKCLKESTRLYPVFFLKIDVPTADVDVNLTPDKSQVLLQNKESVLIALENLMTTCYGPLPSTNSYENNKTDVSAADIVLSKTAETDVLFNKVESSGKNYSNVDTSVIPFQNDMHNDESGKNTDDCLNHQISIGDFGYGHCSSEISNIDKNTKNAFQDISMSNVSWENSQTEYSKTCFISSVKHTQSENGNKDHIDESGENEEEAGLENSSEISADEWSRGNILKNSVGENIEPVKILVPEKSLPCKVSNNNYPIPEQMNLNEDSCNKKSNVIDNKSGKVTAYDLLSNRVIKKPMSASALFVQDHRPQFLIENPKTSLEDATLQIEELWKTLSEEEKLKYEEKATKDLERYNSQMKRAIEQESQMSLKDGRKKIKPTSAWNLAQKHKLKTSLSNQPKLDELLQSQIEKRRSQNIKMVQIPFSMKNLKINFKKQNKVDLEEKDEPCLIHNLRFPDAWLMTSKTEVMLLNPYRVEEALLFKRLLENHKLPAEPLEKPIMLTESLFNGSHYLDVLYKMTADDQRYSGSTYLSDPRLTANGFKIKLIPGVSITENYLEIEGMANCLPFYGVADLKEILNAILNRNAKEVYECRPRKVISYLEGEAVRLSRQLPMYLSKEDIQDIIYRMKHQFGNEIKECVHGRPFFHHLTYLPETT
UniProt Q9NQG6: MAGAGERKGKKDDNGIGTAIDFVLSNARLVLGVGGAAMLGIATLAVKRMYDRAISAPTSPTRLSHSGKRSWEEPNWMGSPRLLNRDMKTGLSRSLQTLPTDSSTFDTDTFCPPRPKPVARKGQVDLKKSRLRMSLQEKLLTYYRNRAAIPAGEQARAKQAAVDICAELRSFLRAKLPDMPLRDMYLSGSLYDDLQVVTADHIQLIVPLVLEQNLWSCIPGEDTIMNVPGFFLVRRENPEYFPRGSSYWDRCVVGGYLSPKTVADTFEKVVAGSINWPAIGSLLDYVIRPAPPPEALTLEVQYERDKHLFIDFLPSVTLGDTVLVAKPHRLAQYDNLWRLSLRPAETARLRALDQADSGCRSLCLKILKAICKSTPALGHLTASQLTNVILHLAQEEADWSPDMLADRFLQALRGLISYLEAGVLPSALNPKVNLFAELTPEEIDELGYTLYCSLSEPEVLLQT
UniProt Q13098: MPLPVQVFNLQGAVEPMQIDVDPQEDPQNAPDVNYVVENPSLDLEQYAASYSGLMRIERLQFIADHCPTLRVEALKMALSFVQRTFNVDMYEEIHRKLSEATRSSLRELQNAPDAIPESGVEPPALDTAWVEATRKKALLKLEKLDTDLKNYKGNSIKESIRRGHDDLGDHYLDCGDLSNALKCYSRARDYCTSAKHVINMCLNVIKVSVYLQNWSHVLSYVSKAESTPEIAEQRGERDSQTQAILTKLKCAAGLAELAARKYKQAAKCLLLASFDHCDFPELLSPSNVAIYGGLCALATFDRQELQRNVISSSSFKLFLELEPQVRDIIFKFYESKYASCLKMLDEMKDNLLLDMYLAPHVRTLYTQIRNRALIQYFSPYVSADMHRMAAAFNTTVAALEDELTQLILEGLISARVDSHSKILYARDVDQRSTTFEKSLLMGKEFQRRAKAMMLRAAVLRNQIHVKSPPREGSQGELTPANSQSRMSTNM

Compound: Nc1nc2c(ncn2[C@@H]2O[C@H](COP(=O)(O)OP(=O)(O)OP(=O)(O)O)[C@@H](O)[C@H]2O)c(=O)[nH]1 [guanosine triphosphate]
Assay: NP40-soluble protein abundance relative to vehicle (solubility fold change) (ratio); higher = more soluble protein in presence of GTP
How it was run: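 Each value is a fold change relative to the detergent-processed vehicle, calculated per replicate from vsn-normalised intensities. Jurkat crude lysate received eight concentrations (0.1 to 10 mM) for 10 min at room temperature and 3 min at 37 °C, then was solubilised in 0.8% NP40 with benzonase (60 min, 4 °C). The ultracentrifuged supernatant was TMT-labelled and run by LC-MS/MS in three independent experiments.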

Row | Target | NP40-soluble protein abundance (concentration: 0.1mM) | NP40-soluble protein abundance (concentration: 0.5mM) | NP40-soluble protein abundance (concentration: 1mM) | NP40-soluble protein abundance (concentration: 2mM) | NP40-soluble protein abundance (concentration: 4mM) | NP40-soluble protein abundance (concentration: 6mM) | NP40-soluble protein abundance (concentration: 8mM) | NP40-soluble protein abundance (concentration: 10mM)
1 | A8MX75 and related entries (UniProt P18074) | 1.11 ± 0.067 | 1.14 ± 0.094 | 1.06 ± 0.058 | 1.11 ± 0.098 | 1.09 ± 0.043 | 1.08 ± 0.088 | 1.04 ± 0.049 | 0.966 ± 0.1
2 | UniProt A9UHW6 and related entries | 0.862 ± 0.026 | 0.828 ± 0.048 | 0.981 ± 0.048 | 0.952 ± 0.085 | 0.908 ± 0.031 | 0.981 ± 0.051 | 0.859 ± 0.099 | 0.94 ± 0.035
3 | B4DP61 and related entries (UniProt Q16637+E7EQZ4+B4DP61) | 1.06 ± 0.032 | 1.08 ± 0.076 | 1.18 ± 0.26 | 1.22 ± 0.19 | 1.24 ± 0.21 | 1.25 ± 0.23 | 1.28 ± 0.24 | 1.21 ± 0.29
4 | B1AP13 and related entries (UniProt P08174) | 0.882 ± 0.042 | 0.894 ± 0.029 | 0.859 ± 0.11 | 0.84 ± 0.097 | 0.792 ± 0.082 | 0.837 ± 0.028 | 0.828 ± 0.087 | 0.847 ± 0.038
5 | B7ZC38 and related entries (UniProt Q9NR46) | 0.905 ± 0.057 | 0.851 ± 0.036 | 0.981 ± 0.069 | 0.962 ± 0.06 | 0.968 ± 0.11 | 0.968 ± 0.083 | 0.898 ± 0.15 | 0.936 ± 0.071
6 | B4E1Q4 and related entries (UniProt O14730) | 0.965 ± 0.1 | 1.03 ± 0.063 | 0.949 ± 0.081 | 0.921 ± 0.073 | 0.806 ± 0.037 | 0.77 ± 0.041 | 0.747 ± 0.08 | 0.704 ± 0.041
7 | D6R938 and related entries (UniProt Q13557) | 1 ± 0.11 | 1.04 ± 0.14 | 1.07 ± 0.14 | 1.08 ± 0.15 | 1.1 ± 0.1 | 1.13 ± 0.1 | 1.09 ± 0.17 | 1.14 ± 0.14
8 | D4PHA4 and related entries (UniProt Q86WP2) | 0.97 ± 0.075 | 1.06 ± 0.12 | 1.12 ± 0.11 | 1.1 ± 0.09 | 1.16 ± 0.15 | 1.22 ± 0.16 | 1.34 ± 0.19 | 1.36 ± 0.099
9 | B8ZZN6 and related entries (UniProt P63165) | 0.891 ± 0.086 | 0.85 ± 0.049 | 1.02 ± 0.11 | 1.02 ± 0.057 | 0.985 ± 0.087 | 1.03 ± 0.058 | 0.989 ± 0.091 | 1.08 ± 0.12
10 | C9JJ19 and related entries (UniProt P82930) | 1.02 ± 0.021 | 1.02 ± 0.13 | 1.19 ± 0.14 | 1.24 ± 0.23 | 1.32 ± 0.33 | 1.19 ± 0.24 | 1.23 ± 0.23 | 1.09 ± 0.17
11 | B1AL69 and related entries (UniProt Q7L3B6) | 0.954 ± 0.052 | 0.907 ± 0.13 | 1.05 ± 0.069 | 1.02 ± 0.045 | 0.95 ± 0.066 | 0.998 ± 0.049 | 0.984 ± 0.025 | 0.983 ± 0.086
12 | C9J473 (UniProt P39210) | 1.1 ± 0.2 | 1.03 ± 0.16 | 0.929 ± 0.16 | 0.928 ± 0.25 | 0.983 ± 0.16 | 0.903 ± 0.23 | 0.875 ± 0.17 | 0.873 ± 0.26
13 | A8MXF6 and related entries (UniProt Q9UNT1+Q9UBK7+B7ZBD5+A8MXF6) | 1.03 ± 0.038 | 1.03 ± 0.035 | 1.02 ± 0.032 | 1.01 ± 0.084 | 0.947 ± 0.046 | 0.955 ± 0.071 | 0.949 ± 0.053 | 0.94158 ± 0.00038
14 | B2RA97 and related entries (UniProt Q9Y5N5) | 1.04 ± 0.22 | 1.05 ± 0.074 | 0.958 ± 0.16 | 1.01 ± 0.18 | 0.898 ± 0.14 | 0.967 ± 0.14 | 0.927 ± 0.16 | 0.899 ± 0.13
15 | C9J185 and related entries (UniProt Q9NZJ5) | 1.03 ± 0.067 | 1.03 ± 0.025 | 1.05 ± 0.079 | 1.08 ± 0.086 | 1.07 ± 0.042 | 1.12 ± 0.03 | 1.07 ± 0.077 | 1.17 ± 0.028
16 | D6RA71 and related entries (UniProt P78317) | 0.998 ± 0.076 | 0.958 ± 0.087 | 0.951 ± 0.11 | 0.831 ± 0.069 | 0.941 ± 0.26 | 0.949 ± 0.18 | 0.881 ± 0.096 | 1.02 ± 0.14
17 | C9J2Y9 and related entries (UniProt P30876) | 1.09 ± 0.1 | 1.15 ± 0.15 | 1.07 ± 0.15 | 1.15 ± 0.21 | 1.12 ± 0.18 | 1.1 ± 0.18 | 1.09 ± 0.17 | 1.04 ± 0.15
18 | B4DWF2 and related entries (UniProt Q9UKS7) | 0.976 ± 0.026 | 0.988 ± 0.029 | 1.03 ± 0.062 | 1.08 ± 0.034 | 1.18 ± 0.051 | 1.21 ± 0.058 | 1.3 ± 0.13 | 1.35 ± 0.11
19 | E5RG17 and related entries (UniProt Q6P1N9) | 1.03 ± 0.016 | 0.996 ± 0.014 | 0.939 ± 0.05 | 0.917 ± 0.066 | 0.919 ± 0.066 | 0.9 ± 0.061 | 0.907 ± 0.052 | 0.854 ± 0.078
20 | B4DDF4 and related entries (UniProt Q99439) | 0.872 ± 0.046 | 0.895 ± 0.059 | 0.901 ± 0.059 | 0.883 ± 0.098 | 0.843 ± 0.099 | 0.885 ± 0.096 | 0.855 ± 0.067 | 0.905 ± 0.076
21 | D6R9Z7 and related entries (UniProt P15954) | 1.01 ± 0.21 | 0.887 ± 0.051 | 1.04 ± 0.14 | 0.9732 ± 0.0089 | 1.03 ± 0.1 | 0.984 ± 0.07 | 1.02 ± 0.094 | 1.13 ± 0.16
22 | C9JMN4 and related entries (UniProt Q92520) | 0.881 ± 0.059 | 0.874 ± 0.094 | 0.886 ± 0.064 | 0.861 ± 0.064 | 0.858 ± 0.076 | 0.856 ± 0.095 | 0.82 ± 0.06 | 0.891 ± 0.11
23 | B7ZAA0 and related entries (UniProt P54277) | 1.04 ± 0.074 | 1.11 ± 0.065 | 1.09 ± 0.13 | 1.17 ± 0.22 | 1.18 ± 0.16 | 1.15 ± 0.15 | 1.15 ± 0.11 | 1.17 ± 0.19
24 | B0QY95 and related entries (UniProt Q9NQG6+B0QY95) | 1.16 ± 0.056 | 1.11 ± 0.091 | 1.07 ± 0.072 | 1.03 ± 0.086 | 1.04 ± 0.087 | 1.04 ± 0.03 | 1.01 ± 0.015 | 1.03 ± 0.028
25 | D3YTB5 and related entries (UniProt P51617) | 1.09 ± 0.052 | 1.09 ± 0.077 | 1.22 ± 0.07 | 1.08 ± 0.083 | 1.12 ± 0.1 | 1.17 ± 0.12 | 1.21 ± 0.032 | 1.17 ± 0.038
26 | C9JFE4 and related entries (UniProt Q13098) | 0.973 ± 0.058 | 0.974 ± 0.054 | 0.988 ± 0.075 | 1.03 ± 0.095 | 1.03 ± 0.089 | 1.02 ± 0.088 | 0.94 ± 0.064 | 1 ± 0.06

Record cards, from the list above. Order of values: NP40-soluble protein abundance (concentration: 0.1mM)	NP40-soluble protein abundance (concentration: 0.5mM)	NP40-soluble protein abundance (concentration: 1mM)	NP40-soluble protein abundance (concentration: 2mM)	NP40-soluble protein abundance (concentration: 4mM)	NP40-soluble protein abundance (concentration: 6mM)	NP40-soluble protein abundance (concentration: 8mM)	NP40-soluble protein abundance (concentration: 10mM)
D6RA71 and related entries (UniProt P78317) reads 0.998 ± 0.076	0.958 ± 0.087	0.951 ± 0.11	0.831 ± 0.069	0.941 ± 0.26	0.949 ± 0.18	0.881 ± 0.096	1.02 ± 0.14
B2RA97 and related entries (UniProt Q9Y5N5) reads 1.04 ± 0.22	1.05 ± 0.074	0.958 ± 0.16	1.01 ± 0.18	0.898 ± 0.14	0.967 ± 0.14	0.927 ± 0.16	0.899 ± 0.13
